# Measured values from the supplement of paper PMC7666118.
# The chains behind the UniProt entries cited, without tags or fusion partners. Where a name states a change or a piece, a line headed by the entry shows the natural chain unless it says otherwise.
# UniProt Q9NUQ7: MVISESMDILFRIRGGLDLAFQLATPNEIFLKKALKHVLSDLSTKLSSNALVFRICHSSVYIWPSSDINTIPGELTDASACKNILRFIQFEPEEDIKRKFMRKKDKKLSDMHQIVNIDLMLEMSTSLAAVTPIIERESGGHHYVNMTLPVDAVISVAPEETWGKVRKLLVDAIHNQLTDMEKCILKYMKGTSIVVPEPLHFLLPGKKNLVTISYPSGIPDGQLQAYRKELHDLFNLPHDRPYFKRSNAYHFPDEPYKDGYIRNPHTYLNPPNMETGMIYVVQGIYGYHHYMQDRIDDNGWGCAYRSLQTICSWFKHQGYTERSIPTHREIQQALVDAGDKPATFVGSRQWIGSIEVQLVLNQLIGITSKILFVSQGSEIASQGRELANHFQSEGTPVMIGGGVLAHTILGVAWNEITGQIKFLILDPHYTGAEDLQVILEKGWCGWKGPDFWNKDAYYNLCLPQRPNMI
# UniProt Q8NCE0: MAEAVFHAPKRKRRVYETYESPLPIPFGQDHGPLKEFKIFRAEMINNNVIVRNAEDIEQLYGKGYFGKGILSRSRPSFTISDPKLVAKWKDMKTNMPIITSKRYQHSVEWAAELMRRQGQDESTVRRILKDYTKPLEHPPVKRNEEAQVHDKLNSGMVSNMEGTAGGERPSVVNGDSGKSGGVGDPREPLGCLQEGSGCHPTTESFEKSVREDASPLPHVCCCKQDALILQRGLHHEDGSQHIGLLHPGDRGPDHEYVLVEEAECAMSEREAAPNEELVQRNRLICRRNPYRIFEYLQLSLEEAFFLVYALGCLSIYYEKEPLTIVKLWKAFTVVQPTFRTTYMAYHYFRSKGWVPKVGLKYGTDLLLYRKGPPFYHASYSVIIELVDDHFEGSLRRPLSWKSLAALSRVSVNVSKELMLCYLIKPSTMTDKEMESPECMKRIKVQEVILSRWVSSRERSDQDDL
# UniProt Q14139: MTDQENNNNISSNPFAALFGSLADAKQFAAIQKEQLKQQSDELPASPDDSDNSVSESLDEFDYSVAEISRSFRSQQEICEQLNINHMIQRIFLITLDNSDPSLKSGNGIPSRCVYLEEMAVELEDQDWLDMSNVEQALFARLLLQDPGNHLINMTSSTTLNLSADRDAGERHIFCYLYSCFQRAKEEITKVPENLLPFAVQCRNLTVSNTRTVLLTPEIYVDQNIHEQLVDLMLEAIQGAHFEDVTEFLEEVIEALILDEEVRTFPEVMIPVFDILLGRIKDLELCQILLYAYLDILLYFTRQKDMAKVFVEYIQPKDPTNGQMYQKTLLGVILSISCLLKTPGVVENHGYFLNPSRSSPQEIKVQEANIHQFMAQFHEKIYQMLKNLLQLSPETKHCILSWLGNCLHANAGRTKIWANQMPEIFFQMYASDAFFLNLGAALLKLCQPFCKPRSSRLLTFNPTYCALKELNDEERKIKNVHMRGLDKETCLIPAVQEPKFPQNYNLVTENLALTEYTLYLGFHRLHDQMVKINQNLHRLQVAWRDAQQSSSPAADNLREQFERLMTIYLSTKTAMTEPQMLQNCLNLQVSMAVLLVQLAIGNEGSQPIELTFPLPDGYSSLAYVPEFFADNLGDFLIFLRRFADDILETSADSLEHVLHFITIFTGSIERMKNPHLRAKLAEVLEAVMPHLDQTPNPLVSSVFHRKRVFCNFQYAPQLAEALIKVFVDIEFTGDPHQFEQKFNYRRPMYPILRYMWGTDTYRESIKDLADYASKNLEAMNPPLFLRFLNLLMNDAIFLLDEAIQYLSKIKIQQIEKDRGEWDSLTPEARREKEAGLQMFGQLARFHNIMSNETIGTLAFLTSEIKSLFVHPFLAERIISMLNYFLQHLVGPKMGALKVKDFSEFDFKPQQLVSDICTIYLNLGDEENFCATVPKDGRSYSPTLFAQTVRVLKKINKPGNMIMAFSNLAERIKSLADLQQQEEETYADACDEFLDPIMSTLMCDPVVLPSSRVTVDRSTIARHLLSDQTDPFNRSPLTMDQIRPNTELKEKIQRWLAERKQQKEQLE
# UniProt P63279, whole entry: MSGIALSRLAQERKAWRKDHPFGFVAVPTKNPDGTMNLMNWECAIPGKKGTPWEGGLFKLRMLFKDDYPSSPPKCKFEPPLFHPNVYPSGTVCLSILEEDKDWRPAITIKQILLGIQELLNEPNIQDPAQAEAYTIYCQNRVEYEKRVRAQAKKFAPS
# UniProt Q9BSL1: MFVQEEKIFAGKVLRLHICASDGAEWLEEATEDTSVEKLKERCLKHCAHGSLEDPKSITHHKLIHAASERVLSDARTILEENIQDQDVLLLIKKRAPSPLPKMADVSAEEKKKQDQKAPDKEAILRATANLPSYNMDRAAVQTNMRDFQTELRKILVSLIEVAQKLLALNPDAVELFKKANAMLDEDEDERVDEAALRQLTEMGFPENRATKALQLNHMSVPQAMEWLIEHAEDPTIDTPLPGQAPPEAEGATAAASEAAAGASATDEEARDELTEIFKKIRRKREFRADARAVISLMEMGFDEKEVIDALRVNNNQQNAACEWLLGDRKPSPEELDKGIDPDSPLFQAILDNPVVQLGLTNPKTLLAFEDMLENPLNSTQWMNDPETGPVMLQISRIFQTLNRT
# UniProt Q8WVY7: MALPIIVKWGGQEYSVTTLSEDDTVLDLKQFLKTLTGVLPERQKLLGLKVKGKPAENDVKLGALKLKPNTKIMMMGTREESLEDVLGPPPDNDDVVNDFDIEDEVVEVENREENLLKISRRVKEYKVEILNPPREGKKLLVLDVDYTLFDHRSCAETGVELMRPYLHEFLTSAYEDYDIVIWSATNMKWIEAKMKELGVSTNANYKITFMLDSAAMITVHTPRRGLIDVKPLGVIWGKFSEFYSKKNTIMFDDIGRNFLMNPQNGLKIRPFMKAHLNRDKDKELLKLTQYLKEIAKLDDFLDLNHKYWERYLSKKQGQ
# UniProt Q8TDR0: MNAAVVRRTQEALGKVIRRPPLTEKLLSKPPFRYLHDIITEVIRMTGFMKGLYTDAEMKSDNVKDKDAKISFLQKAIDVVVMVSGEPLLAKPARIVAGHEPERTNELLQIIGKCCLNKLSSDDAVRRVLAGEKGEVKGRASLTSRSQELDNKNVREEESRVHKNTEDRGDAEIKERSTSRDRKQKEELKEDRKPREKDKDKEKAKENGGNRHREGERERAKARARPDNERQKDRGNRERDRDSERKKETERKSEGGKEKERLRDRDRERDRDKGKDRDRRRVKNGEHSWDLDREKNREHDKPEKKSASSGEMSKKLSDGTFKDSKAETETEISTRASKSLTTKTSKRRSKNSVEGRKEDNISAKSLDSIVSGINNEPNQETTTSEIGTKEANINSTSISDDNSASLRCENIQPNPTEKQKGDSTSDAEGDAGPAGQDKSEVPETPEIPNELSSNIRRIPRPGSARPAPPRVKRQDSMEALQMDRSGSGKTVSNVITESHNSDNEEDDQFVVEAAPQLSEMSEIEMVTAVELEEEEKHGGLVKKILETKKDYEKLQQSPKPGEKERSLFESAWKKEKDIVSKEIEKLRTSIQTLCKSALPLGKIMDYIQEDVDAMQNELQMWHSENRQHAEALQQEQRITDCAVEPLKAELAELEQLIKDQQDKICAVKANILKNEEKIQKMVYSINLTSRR
# UniProt O15164: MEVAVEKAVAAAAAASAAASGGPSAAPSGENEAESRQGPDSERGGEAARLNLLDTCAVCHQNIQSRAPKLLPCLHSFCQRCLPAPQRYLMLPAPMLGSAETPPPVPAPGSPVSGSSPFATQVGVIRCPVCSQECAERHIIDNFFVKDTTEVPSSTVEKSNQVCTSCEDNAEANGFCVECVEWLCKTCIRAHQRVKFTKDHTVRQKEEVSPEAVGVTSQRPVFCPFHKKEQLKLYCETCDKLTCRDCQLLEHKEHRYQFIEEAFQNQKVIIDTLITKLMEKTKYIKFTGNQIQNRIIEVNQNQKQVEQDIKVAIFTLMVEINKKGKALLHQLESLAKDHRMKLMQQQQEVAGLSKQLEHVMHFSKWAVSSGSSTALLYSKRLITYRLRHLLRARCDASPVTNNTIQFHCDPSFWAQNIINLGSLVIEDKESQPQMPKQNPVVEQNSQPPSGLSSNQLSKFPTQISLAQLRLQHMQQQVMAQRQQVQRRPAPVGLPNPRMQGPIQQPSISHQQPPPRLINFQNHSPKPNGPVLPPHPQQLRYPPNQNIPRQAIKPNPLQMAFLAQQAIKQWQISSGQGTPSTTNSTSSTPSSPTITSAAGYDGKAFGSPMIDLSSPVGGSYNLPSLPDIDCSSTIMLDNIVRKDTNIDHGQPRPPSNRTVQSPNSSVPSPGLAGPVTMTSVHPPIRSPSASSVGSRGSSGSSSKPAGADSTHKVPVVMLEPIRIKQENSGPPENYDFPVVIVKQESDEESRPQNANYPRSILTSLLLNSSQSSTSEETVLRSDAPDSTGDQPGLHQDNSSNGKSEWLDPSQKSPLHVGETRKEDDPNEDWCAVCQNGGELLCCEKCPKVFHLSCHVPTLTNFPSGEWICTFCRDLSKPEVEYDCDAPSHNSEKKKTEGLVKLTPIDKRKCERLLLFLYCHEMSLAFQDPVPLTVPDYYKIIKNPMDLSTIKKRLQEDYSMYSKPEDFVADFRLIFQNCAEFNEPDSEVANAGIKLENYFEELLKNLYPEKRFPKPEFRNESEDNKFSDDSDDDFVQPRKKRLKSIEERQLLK
# UniProt Q9BRA2: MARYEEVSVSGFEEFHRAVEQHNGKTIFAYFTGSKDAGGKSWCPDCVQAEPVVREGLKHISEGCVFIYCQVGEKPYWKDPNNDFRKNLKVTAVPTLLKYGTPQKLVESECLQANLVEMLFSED
# UniProt Q9UL33, whole entry: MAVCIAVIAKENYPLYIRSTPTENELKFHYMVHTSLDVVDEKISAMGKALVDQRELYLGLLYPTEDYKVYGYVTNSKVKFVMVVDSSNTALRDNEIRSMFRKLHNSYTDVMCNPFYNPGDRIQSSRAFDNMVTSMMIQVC
# UniProt Q7Z4G4: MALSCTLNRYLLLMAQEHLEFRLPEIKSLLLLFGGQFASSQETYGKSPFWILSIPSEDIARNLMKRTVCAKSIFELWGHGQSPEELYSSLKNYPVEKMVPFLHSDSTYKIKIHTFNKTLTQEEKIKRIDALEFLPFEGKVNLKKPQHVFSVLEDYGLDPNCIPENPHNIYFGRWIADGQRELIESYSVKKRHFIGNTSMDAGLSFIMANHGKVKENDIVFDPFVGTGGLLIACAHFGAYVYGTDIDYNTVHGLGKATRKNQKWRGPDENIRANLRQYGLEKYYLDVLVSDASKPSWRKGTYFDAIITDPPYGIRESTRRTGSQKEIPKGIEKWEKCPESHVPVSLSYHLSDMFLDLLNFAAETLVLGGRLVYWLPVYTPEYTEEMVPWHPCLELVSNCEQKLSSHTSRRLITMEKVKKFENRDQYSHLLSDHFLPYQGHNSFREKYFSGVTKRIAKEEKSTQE
# UniProt P10746: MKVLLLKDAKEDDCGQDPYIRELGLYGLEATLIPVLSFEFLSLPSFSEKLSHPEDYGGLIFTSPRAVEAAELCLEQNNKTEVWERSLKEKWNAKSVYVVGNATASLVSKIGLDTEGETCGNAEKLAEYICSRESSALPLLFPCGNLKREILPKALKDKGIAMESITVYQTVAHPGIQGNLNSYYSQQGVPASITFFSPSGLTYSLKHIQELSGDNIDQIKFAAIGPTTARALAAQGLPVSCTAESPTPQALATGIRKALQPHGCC
# UniProt Q13630: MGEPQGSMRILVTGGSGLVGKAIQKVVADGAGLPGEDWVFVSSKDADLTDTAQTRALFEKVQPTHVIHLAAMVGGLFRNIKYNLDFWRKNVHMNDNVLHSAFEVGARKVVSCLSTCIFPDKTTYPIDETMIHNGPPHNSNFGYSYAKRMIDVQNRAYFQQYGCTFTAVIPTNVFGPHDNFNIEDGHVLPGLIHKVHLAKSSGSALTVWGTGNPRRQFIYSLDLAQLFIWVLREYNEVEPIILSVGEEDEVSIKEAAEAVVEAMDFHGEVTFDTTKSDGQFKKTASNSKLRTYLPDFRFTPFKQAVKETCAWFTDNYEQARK
# UniProt P47985: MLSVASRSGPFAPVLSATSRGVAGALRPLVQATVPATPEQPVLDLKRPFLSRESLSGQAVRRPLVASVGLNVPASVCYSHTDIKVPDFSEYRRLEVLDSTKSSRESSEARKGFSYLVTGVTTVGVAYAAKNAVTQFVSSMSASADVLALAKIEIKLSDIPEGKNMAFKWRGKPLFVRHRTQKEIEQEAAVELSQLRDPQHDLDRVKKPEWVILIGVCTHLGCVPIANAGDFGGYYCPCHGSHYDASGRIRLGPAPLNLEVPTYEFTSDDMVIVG
# UniProt Q9Y3C8: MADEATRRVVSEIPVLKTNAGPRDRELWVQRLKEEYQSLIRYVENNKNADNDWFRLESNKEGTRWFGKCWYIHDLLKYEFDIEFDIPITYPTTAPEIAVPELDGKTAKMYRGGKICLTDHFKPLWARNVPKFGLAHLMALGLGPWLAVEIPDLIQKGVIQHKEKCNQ
# UniProt P11441: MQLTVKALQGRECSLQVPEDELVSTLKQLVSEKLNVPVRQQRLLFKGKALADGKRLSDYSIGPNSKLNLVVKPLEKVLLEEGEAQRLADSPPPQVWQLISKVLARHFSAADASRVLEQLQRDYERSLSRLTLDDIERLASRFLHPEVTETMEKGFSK
# Some of the results follow.
# Compound: COc1ccc(Cn2ccc3ccc(C(=O)NO)cc32)cc1
# Experiment: dose-dependent thermal stabilisation call (2D-TPP, DLPTP, 10% FDR) (binary (1 = stabilised)); higher = stabilised by the compound
# Conditions: system: HL-60 intact cells; concentration range 0.04-10 µM
row,Target,dose-dependent thermal stabilisation call
1,TXNRD2 (UniProt Q9NNW7),inactive: 0
2,UFSP2 (UniProt Q9NUQ7),inactive: 0
3,TSEN2 (UniProt Q8NCE0),inactive: 0
4,UBE4A (UniProt Q14139),inactive: 0
5,USP46 (UniProt P62068),inactive: 0
6,UBE2I (UniProt P63279),inactive: 0
7,UBAC1 (UniProt Q9BSL1),inactive: 0
8,UBE2A (UniProt P49459),inactive: 0
9,UBLCP1 (UniProt Q8WVY7),inactive: 0
10,USO1 (UniProt O60763),inactive: 0
11,TRIP10 (UniProt Q15642),inactive: 0
12,TTC26,inactive: 0
13,TRAF3IP1 (UniProt Q8TDR0),inactive: 0
14,U2AF2 (UniProt P26368),inactive: 0
15,TRIM24 (UniProt O15164),inactive: 0
16,TXNDC17 (UniProt Q9BRA2),inactive: 0
17,TRAPPC2L (UniProt Q9UL33),inactive: 0
18,TRIM25 (UniProt Q14258),inactive: 0
19,TRMT11 (UniProt Q7Z4G4),inactive: 0
20,USP48 (UniProt Q86UV5),inactive: 0
21,TYW3 (UniProt Q6IPR3),inactive: 0
22,UROS (UniProt P10746),inactive: 0
23,TSTA3 (UniProt Q13630),inactive: 0
24,UQCRFS1 (UniProt P47985),inactive: 0
25,UFC1 (UniProt Q9Y3C8),inactive: 0
26,TRIM36 (UniProt Q9NQ86),inactive: 0
27,UBL4A (UniProt P11441),inactive: 0

# An excerpt of these results, bar-delimited.
row | Target | dose-dependent thermal stabilisation call
11 | TRIP10 (UniProt Q15642) | inactive: 0
12 | TTC26 | inactive: 0
